# Taken from: PubChem BioAssay AID1224826 (NIAID, 2016)
# Assay: 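Regulators of Tlr4 signalling leading to Tnf-alpha expression in macrophages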 (primary screen)
# System: RAW264.7 G9 macrophages from mouse bearing reporters for p65 (GFP) and the Tnf promoter (mCherry)
# Reagent: siRNA pool against mouse genes, 100 nM
# Duration: 16 h of LPS stimulation, after 2 days of siRNA transfection
# Challenge: bacterial lipopolysaccharide (Salmonella minnesota R595), 10 ng/ml
# Measured: 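Imaged Tnf reporter mCherry in nuclei, minus background, normalised per plate to the median and expressed as robust z-scores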
# Direction: Tnf reporter robust z-score: higher = stronger Tnf promoter reporter signal after LPS; Tnf reporter intensity: higher = stronger Tnf promoter reporter signal
# Hit rule: 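a well counts as active at a score of -1.3 or below (Tlr4 knock-down control median) or above 3 (raised signal); controls and wells holding fewer than 50 cells are excluded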
# Meaning of the calls: active = Tnf reporter clearly lowered or raised; inactive = no clear change in Tnf reporter
# This is a random part of about 17,000 reagents tested. About 1,110 of them (6.6%) count as active. 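Active means lowered or raised reporter signal; replicate intensities are raw and not normalised per plate.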 A number with no mark means an inactive call. Reagent sequences are not shown.
target,Tnf reporter robust z-score,fewer than 50 cells in well,"Tnf reporter intensity, replicate 1","Tnf reporter intensity, replicate 2"
"Serpinb3c (serine (or cysteine) peptidase inhibitor, clade B, member 3C)",0.84,enough cells in well,137,121
"Spon2 (spondin 2, extracellular matrix protein)",-0.27,enough cells in well,90.9,90.5
Dync1li1 (dynein cytoplasmic 1 light intermediate chain 1),-1.88 (active),enough cells in well,79.5,34.7
Guca2a (guanylate cyclase activator 2a (guanylin)),-0.31,enough cells in well,169,182
2610528J11Rik (RIKEN cDNA 2610528J11 gene),,fewer than 50 cells per well; well left out of calls,115,32.7
Twf1 (twinfilin actin binding protein 1),-0.92,enough cells in well,103,140
"Nr2f1 (nuclear receptor subfamily 2, group F, member 1)",-0.54,enough cells in well,170,170
Afmid (arylformamidase),-0.62,enough cells in well,122,145
Sbno2 (strawberry notch 2),-1.18,enough cells in well,99,154
"Pip4p2 (phosphatidylinositol-4,5-bisphosphate 4-phosphatase 2)",-0.03,enough cells in well,247,69.5
Gc (vitamin D binding protein),0.75,enough cells in well,329,289
Tmem185b (transmembrane protein 185B),3.87 (active),enough cells in well,529,176
Stx18 (syntaxin 18),,fewer than 50 cells per well; well left out of calls,72,69.9
Acot1 (acyl-CoA thioesterase 1),0.4,enough cells in well,236,172
Lrp4 (low density lipoprotein receptor-related protein 4),0.43,enough cells in well,202,180
Zfp609 (zinc finger protein 609),-0.34,enough cells in well,99.7,123
Ccdc33 (coiled-coil domain containing 33),1.58,enough cells in well,271,104
Srek1ip1,-0.83,enough cells in well,143,40.7
"Spink1 (serine peptidase inhibitor, Kazal type 1)",-0.79,enough cells in well,190,171
Cerk (ceramide kinase),0.11,enough cells in well,224,145
"Rab36 (RAB36, member RAS oncogene family)",-0.19,enough cells in well,284,196
Tm2d1 (TM2 domain containing 1),0.66,enough cells in well,199,314
Or1a1b (olfactory receptor family 1 subfamily A member 1B),0.56,enough cells in well,353,96.8
Sirpb1a (signal-regulatory protein beta 1A),-0.16,enough cells in well,149,150

An excerpt taken from the entries so far, as a working copy:
target,Tnf reporter robust z-score,fewer than 50 cells in well,"Tnf reporter intensity, replicate 1","Tnf reporter intensity, replicate 2"
"Nr2f1 (nuclear receptor subfamily 2, group F, member 1)",-0.54,enough cells in well,170,170
Afmid (arylformamidase),-0.62,enough cells in well,122,145
